Some of the results follow.
Assays:
Experiment in all cases: log2 fold change, soluble protein after heating vs DMSO (PISA); higher = thermal stabilisation; K562 lysate, 10 uM; active = over 0.2 and 3.5 SD of the protein, either way, in both replicates (recomputed)
lapatinib = compound: CS(=O)(=O)CCNCc1ccc(-c2ccc3ncnc(Nc4ccc(OCc5cccc(F)c5)c(Cl)c4)c3c2)o1 [lapatinib]
Summary of the method: (§1)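 Following dounce homogenisation of K562 pellets in PBS pH 7.4 with 1 mM MgCl2, crude extract at 1 mg/mL protein was incubated for 30 min with 10 μM compound. Aliquots were then heated for 3 min over 48°C-58°C and pooled, NP-40 was added to 0.5% at 4°C, and soluble protein was recovered as the supernatant at 21,000xg for 90 min. Channel-sum-equalised TMTpro 16plex LC-MS/MS quantified this protein. Each value, from duplicates, is a log-two fold change in thermal stability relative to solvent controls.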

Protein sequences, listed by entry. Tags and fused reporters are not part of them. Lines headed by an entry give the natural chain unless they say otherwise; changes in a name come on top.
UniProt Q96SU4: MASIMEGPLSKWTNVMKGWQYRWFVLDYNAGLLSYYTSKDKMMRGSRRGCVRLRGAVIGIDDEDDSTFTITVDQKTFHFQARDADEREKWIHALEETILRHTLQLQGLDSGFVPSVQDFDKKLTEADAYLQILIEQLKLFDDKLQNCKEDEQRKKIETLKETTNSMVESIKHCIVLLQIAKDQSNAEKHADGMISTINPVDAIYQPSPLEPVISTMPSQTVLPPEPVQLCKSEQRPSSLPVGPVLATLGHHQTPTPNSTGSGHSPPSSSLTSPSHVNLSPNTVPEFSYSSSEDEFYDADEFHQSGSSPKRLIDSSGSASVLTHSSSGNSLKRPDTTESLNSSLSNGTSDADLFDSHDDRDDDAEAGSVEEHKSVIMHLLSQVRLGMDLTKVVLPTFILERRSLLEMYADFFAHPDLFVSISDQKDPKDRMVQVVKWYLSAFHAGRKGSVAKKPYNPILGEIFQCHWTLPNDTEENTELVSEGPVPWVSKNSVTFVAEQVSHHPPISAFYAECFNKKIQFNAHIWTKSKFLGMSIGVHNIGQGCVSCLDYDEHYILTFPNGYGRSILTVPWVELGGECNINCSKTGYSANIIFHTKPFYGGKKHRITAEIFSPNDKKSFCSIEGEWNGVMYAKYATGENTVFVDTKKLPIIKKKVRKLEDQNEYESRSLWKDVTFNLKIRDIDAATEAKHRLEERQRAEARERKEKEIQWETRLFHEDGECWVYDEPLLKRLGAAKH
UniProt Q9BZF1: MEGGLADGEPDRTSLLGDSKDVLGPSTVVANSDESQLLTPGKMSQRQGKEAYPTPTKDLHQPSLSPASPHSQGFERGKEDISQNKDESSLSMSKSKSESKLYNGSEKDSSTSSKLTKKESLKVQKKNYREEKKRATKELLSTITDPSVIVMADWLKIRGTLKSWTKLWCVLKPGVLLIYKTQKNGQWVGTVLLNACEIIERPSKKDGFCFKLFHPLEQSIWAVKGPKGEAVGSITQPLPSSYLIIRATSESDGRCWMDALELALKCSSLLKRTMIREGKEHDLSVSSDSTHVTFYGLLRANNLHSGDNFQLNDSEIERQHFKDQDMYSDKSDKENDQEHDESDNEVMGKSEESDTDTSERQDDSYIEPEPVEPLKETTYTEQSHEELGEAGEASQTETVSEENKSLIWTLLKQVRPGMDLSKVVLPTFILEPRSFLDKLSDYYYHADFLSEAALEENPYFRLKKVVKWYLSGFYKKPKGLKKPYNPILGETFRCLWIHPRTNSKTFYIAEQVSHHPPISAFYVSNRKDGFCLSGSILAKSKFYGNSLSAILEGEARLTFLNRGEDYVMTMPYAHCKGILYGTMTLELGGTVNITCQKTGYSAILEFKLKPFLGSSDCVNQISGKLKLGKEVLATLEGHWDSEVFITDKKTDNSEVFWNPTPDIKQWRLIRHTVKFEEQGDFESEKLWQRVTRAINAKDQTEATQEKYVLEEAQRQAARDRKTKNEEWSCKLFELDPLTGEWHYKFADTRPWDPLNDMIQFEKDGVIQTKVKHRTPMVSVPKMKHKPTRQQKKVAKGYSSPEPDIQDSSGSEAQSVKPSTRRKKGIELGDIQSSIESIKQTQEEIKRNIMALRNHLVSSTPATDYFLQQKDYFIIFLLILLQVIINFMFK
UniProt Q99497, whole entry, looked up: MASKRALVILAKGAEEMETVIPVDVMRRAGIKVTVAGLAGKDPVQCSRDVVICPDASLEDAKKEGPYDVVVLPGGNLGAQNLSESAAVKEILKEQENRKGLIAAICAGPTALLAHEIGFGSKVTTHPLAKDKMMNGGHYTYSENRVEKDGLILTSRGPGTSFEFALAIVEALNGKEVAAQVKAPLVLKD
UniProt Q9NRP0: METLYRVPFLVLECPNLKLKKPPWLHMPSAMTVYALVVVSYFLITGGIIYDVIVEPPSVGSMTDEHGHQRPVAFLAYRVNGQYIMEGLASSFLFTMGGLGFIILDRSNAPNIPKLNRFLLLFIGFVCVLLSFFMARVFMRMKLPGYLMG
UniProt O60829: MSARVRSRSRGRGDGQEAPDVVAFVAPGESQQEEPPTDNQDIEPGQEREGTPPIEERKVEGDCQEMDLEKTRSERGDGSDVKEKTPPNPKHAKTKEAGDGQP
UniProt P13674: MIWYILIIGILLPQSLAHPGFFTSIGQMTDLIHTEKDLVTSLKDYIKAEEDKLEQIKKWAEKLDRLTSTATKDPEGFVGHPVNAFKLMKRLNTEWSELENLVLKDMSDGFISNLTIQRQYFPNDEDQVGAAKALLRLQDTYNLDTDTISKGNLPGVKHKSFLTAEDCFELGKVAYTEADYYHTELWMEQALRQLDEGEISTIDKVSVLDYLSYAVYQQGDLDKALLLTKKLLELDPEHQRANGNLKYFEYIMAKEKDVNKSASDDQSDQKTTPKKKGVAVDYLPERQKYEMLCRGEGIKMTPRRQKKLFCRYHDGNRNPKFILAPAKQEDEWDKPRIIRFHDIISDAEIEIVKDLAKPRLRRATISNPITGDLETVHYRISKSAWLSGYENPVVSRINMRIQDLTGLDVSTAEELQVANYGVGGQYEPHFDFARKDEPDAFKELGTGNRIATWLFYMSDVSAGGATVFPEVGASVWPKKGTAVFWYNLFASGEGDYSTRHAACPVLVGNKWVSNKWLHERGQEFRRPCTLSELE
UniProt Q86W56: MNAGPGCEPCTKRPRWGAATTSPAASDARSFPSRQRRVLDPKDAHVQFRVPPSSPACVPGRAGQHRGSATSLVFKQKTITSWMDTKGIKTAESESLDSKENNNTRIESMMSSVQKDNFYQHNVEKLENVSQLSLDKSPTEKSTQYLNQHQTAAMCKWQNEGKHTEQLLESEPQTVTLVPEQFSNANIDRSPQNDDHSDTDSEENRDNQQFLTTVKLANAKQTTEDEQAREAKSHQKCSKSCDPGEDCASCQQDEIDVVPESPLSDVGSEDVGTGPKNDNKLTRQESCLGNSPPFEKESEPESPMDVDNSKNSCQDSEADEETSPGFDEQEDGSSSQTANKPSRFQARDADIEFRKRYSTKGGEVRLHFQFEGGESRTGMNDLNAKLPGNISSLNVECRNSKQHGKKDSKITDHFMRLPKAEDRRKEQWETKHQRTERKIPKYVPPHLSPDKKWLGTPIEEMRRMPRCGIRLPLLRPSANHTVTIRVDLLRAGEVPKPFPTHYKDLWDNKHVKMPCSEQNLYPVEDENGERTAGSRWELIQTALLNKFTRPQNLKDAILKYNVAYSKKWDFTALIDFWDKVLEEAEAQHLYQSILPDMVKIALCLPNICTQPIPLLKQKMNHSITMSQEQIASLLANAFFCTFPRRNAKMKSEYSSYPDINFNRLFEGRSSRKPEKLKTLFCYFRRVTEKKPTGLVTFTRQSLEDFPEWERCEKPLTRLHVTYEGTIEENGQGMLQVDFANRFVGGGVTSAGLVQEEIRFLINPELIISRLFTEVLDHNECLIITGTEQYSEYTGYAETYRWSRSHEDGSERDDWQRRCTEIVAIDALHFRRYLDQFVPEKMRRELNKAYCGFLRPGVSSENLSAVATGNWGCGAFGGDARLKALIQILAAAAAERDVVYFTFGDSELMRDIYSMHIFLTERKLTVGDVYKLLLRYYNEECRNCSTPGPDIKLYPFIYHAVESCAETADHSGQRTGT
UniProt Q5SWX8: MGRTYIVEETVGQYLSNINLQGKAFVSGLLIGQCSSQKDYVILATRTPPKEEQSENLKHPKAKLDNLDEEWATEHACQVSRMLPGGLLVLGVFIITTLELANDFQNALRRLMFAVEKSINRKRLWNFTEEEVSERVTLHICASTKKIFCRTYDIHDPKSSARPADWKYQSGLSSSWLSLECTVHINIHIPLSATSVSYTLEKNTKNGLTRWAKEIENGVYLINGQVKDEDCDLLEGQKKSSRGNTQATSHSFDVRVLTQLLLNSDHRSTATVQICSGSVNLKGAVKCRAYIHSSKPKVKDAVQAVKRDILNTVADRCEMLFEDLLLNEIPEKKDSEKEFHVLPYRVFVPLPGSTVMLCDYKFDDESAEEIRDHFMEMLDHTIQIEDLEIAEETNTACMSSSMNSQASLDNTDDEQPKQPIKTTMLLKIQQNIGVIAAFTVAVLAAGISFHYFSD
UniProt O75781: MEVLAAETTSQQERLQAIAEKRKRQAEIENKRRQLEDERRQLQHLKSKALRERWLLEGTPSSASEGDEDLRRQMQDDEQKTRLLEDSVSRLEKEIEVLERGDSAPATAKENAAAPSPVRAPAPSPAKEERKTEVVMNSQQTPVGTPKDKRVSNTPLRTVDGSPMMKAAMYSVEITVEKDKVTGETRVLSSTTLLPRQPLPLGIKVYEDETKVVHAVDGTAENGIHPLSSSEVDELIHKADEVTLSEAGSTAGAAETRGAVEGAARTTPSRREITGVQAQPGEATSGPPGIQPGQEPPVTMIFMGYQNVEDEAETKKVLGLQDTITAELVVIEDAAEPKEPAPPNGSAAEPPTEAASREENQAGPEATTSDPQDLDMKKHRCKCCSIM
UniProt Q13153, whole entry, looked up: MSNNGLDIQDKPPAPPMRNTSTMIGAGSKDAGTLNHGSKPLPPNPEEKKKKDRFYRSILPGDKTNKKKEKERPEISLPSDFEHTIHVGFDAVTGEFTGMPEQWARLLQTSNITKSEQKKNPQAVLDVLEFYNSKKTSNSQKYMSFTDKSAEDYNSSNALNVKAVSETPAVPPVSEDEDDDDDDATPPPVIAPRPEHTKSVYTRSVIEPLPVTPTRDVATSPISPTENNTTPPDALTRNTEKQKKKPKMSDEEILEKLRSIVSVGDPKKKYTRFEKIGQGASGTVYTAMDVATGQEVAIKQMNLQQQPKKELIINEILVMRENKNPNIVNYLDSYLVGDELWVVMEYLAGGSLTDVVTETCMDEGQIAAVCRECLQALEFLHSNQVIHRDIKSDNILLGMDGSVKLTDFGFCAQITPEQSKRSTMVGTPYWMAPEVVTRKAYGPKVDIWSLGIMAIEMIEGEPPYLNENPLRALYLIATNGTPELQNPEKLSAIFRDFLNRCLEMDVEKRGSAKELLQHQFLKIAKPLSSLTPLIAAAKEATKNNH
UniProt Q96E22: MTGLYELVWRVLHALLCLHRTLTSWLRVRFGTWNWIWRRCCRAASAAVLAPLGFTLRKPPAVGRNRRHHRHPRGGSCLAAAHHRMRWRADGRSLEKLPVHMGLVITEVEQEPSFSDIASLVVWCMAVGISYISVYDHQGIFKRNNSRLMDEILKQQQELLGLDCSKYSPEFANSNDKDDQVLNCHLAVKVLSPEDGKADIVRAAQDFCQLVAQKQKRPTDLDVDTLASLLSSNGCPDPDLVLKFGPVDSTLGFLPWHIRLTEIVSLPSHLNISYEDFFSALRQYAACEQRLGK
UniProt Q92882: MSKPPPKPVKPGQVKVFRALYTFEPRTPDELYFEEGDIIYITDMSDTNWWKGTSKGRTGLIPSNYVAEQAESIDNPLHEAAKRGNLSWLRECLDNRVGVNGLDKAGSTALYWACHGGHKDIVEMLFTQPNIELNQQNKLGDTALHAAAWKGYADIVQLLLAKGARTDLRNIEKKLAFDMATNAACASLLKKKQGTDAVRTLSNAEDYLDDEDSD
UniProt Q96HP4: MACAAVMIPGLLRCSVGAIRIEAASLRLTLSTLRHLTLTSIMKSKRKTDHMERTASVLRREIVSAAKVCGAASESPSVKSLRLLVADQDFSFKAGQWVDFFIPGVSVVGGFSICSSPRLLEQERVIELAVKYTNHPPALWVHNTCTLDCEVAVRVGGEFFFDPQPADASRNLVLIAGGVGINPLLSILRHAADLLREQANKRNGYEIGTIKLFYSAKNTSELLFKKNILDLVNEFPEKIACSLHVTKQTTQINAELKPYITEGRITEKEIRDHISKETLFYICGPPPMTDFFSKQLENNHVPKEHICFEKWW
UniProt Q32P28: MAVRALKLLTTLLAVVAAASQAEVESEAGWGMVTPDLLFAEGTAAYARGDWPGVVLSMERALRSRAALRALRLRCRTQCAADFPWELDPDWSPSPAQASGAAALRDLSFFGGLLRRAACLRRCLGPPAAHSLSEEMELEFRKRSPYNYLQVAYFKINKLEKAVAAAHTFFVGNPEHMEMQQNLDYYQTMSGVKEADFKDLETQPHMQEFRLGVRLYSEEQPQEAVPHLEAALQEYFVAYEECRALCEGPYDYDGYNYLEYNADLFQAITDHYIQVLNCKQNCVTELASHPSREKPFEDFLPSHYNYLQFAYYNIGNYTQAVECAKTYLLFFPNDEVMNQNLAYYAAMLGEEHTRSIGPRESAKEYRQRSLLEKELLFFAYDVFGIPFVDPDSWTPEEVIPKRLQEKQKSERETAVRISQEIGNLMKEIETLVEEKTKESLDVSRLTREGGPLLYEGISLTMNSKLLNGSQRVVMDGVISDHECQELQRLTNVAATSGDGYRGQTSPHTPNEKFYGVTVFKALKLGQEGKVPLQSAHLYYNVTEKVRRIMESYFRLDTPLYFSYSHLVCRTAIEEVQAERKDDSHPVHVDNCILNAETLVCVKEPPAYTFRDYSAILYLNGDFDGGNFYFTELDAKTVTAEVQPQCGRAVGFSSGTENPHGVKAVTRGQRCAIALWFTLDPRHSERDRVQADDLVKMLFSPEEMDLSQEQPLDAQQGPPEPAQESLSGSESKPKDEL

pictilisib = compound: CS(=O)(=O)N1CCN(Cc2cc3nc(-c4cccc5[nH]ncc45)nc(N4CCOCC4)c3s2)CC1 [pictilisib]
Summary of the method: as §1

crizotinib = compound: C[C@@H](Oc1cc(-c2cnn(C3CCNCC3)c2)cnc1N)c1c(Cl)ccc(F)c1Cl [crizotinib]
Summary of the method: as §1

[1] = compound: C[C@H](C1=CC=C(C=C1)C(=O)NC2=C3C=CNC3=NC=C2)N
Summary of the method: as §1

duvelisib = compound: C[C@H](Nc1ncnc2nc[nH]c12)c1cc2cccc(Cl)c2c(=O)n1-c1ccccc1 [duvelisib]
Summary of the method: as §1

gandotinib = compound: Cc1cc(Nc2cc(CN3CCOCC3)c3nc(C)c(Cc4ccc(Cl)cc4F)n3n2)n[nH]1 [gandotinib]
Summary of the method: as §1

tozasertib = compound: Cc1cc(Nc2cc(N3CCN(C)CC3)nc(Sc3ccc(NC(=O)C4CC4)cc3)n2)n[nH]1 [tozasertib]
Summary of the method: as §1

doramapimod = compound: Cc1ccc(-n2nc(C(C)(C)C)cc2NC(=O)Nc2ccc(OCCN3CCOCC3)c3ccccc23)cc1 [doramapimod]
Summary of the method: as §1

bafetinib = compound: Cc1ccc(NC(=O)c2ccc(CN3CC[C@H](N(C)C)C3)c(C(F)(F)F)c2)cc1Nc1nccc(-c2cncnc2)n1 [bafetinib]
Summary of the method: as §1

[2] = compound: Cc1cccc(CC(=O)N2CCc3c2ccc(-c2cn(C)c4ncnc(N)c24)c3F)n1
Summary of the method: as §1

Target	log2 fold change (lapatinib)	log2 fold change (pictilisib)	log2 fold change (crizotinib)	log2 fold change [1]	log2 fold change (duvelisib)	log2 fold change (gandotinib)	log2 fold change (tozasertib)	log2 fold change (doramapimod)	log2 fold change (bafetinib)	log2 fold change [2]
OSBPL9 isoform 2 (UniProt Q96SU4)	inactive: 0	inactive: -0.022	inactive: -0.015	inactive: -0.039	inactive: 0.001	inactive: -0.088	inactive: -0.122	inactive: -0.026	inactive: -0.044	inactive: 0.02
NUP88 (UniProt Q99567)	inactive: 0.001	inactive: -0.018	inactive: 0.034	inactive: -0.014	inactive: -0.003	inactive: -0.039	inactive: -0.012	inactive: -0.044	inactive: -0.007	inactive: 0.045
OGFR (UniProt Q9NZT2)	inactive: 0.014	inactive: -0.012	inactive: 0.052	inactive: 0.128	inactive: -0.008	inactive: -0.062	inactive: -0.043	inactive: -0.012	inactive: 0.043	inactive: -0.037
OGFOD1 (UniProt Q8N543)	inactive: 0	inactive: -0.008	inactive: 0.02	inactive: 0.002	inactive: -0.01	inactive: -0.011	inactive: -0.017	inactive: -0.017	inactive: -0.047	inactive: 0.008
OSBPL8 (UniProt Q9BZF1)	inactive: 0.01	inactive: 0.023	inactive: -0.039	inactive: -0.003	inactive: -0.038	inactive: -0.226	inactive: -0.009	inactive: 0.051	inactive: -0.041	inactive: -0.021
PARK7 (UniProt Q99497)	inactive: -0.03	inactive: -0.031	inactive: -0.002	inactive: 0.025	inactive: 0.013	inactive: -0.009	inactive: 0.005	inactive: -0.025	inactive: 0.078	inactive: -0.065
PAN2 isoform 2 (UniProt Q504Q3)	inactive: -0.044	inactive: 0.045	inactive: -0.085	inactive: 0.003	inactive: 0.041	inactive: -0.053	active: 0.27	inactive: 0.09	inactive: -0.108	inactive: 0.084
NUTF2 (UniProt P61970)	inactive: 0.055	inactive: -0.032	inactive: 0.007	inactive: 0.031	inactive: 0.025	inactive: -0.024	inactive: 0.006	inactive: -0.026	inactive: 0.015	inactive: -0.004
OIP5 (UniProt O43482)	inactive: 0.027	inactive: 0	inactive: -0.074	inactive: -0.057	inactive: -0.056	inactive: 0.097	inactive: -0.036	inactive: 0.003	inactive: -0.118	inactive: 0.083
OLA1 (UniProt Q9NTK5)	inactive: -0.009	inactive: 0.013	inactive: -0.005	inactive: -0.088	inactive: 0.007	inactive: -0.035	inactive: 0.025	inactive: 0.018	inactive: 0.024	inactive: 0.052
OSGEP (UniProt Q9NPF4)	inactive: -0.011	inactive: -0.025	inactive: -0.006	inactive: -0.07	inactive: -0.037	inactive: -0.024	inactive: 0.043	inactive: -0.035	inactive: -0.008	inactive: 0.033
OSTC (UniProt Q9NRP0)	inactive: 0.055	inactive: -0.029	inactive: -0.199	inactive: -0.111	inactive: -0.106	inactive: -0.015	inactive: 0.113	inactive: 0.068	inactive: -0.111	inactive: 0.223
NUP98 (UniProt P52948)	inactive: 0.007	inactive: -0.041	inactive: 0.017	inactive: -0.014	inactive: -0.04	inactive: 0.01	inactive: -0.033	inactive: -0.024	inactive: -0.024	inactive: 0.043
P4HB (UniProt I3L0S0)	inactive: -0.215	–	–	–	–	–	–	–	–	–
PARL (UniProt Q9H300)	inactive: -0.05	inactive: 0.032	inactive: -0.034	inactive: -0.095	inactive: -0.038	inactive: 0.018	inactive: 0.018	inactive: 0.011	inactive: -0.151	inactive: 0.018
PAGE4 (UniProt O60829)	inactive: -0.012	inactive: -0.05	inactive: -0.028	active: 0.344	inactive: 0.091	inactive: -0.102	inactive: -0.023	inactive: 0.11	inactive: -0.004	inactive: -0.134

Target	log2 fold change (lapatinib)	log2 fold change (pictilisib)	log2 fold change (crizotinib)	log2 fold change [1]	log2 fold change (duvelisib)	log2 fold change (gandotinib)	log2 fold change (tozasertib)	log2 fold change (doramapimod)	log2 fold change (bafetinib)	log2 fold change [2]
P4HA1 (UniProt P13674)	inactive: -0.003	inactive: -0.021	inactive: 0.007	inactive: 0.021	inactive: -0.016	inactive: -0.01	inactive: 0.022	inactive: -0.011	inactive: -0.022	inactive: 0.013
NUP37 (UniProt Q8NFH4)	inactive: -0.036	inactive: -0.004	inactive: 0.029	inactive: -0.054	inactive: -0.006	inactive: 0.018	inactive: 0.038	inactive: 0.049	inactive: -0.056	inactive: 0.046
PARG (UniProt Q86W56)	inactive: 0.017	inactive: -0.035	inactive: -0.058	inactive: 0.047	inactive: -0.02	inactive: -0.065	inactive: -0.033	inactive: 0.005	inactive: -0.004	inactive: -0.01
ODR4 (UniProt Q5SWX8)	inactive: -0.06	inactive: -0.078	inactive: -0.084	inactive: 0.143	inactive: 0.016	inactive: -0.141	inactive: 0.082	inactive: 0.043	inactive: -0.04	inactive: -0.056
PALM (UniProt O75781)	inactive: -0.027	inactive: -0.064	inactive: 0.025	inactive: -0.063	inactive: 0.023	inactive: 0.066	inactive: 0.007	inactive: -0.023	inactive: 0.003	inactive: 0.026
OTUD4 (UniProt Q01804)	inactive: -0.064	inactive: -0.012	inactive: -0.013	inactive: -0.083	inactive: -0.007	inactive: 0.001	inactive: -0.018	inactive: -0.041	inactive: -0.011	inactive: -0.021
PAFAH1B3 (UniProt Q15102)	inactive: -0.034	inactive: -0.024	inactive: -0.01	inactive: -0.016	inactive: -0.024	inactive: -0.001	inactive: 0.054	inactive: 0	inactive: 0.048	inactive: -0.001
PAK1 (UniProt Q13153)	inactive: -0.037	inactive: -0.034	inactive: 0.019	inactive: -0.117	inactive: 0.044	inactive: -0.011	inactive: -0.02	inactive: -0.035	inactive: 0.002	inactive: -0.005
OSBP2 (UniProt Q969R2)	inactive: 0.003	inactive: 0.024	inactive: -0.074	active: -0.666	inactive: 0.116	inactive: 0.194	inactive: -0.028	inactive: 0.018	inactive: -0.037	inactive: 0.23
OCRL (UniProt Q01968)	inactive: 0.008	inactive: -0.029	inactive: -0.047	inactive: -0.029	inactive: -0.013	inactive: -0.009	inactive: 0	inactive: 0.033	inactive: 0.001	inactive: 0.047
NUS1 (UniProt Q96E22)	inactive: 0.008	inactive: -0.015	inactive: 0.099	inactive: 0.169	inactive: 0.073	inactive: -0.105	inactive: 0.001	inactive: -0.013	inactive: -0.028	inactive: -0.023
OSTF1 (UniProt Q92882)	inactive: 0.007	inactive: -0.045	inactive: -0.005	inactive: -0.015	inactive: -0.009	inactive: 0.059	inactive: 0.085	inactive: -0.002	inactive: -0.027	inactive: 0.038
OXNAD1 (UniProt Q96HP4)	inactive: 0.004	inactive: -0.05	inactive: -0.039	inactive: 0.076	inactive: 0.022	inactive: -0.09	inactive: -0.006	inactive: 0.073	inactive: 0.059	inactive: 0.027
OBSCN isoform 6 (UniProt Q5VST9)	inactive: -0.175	–	–	–	–	–	–	–	–	–
P3H1 (UniProt Q32P28)	inactive: -0.007	inactive: -0.027	inactive: 0	inactive: 0.005	inactive: -0.017	inactive: -0.006	inactive: 0.021	inactive: -0.019	inactive: -0.006	inactive: 0.024

A portion taken from the entries so far:
Target	log2 fold change (lapatinib)	log2 fold change (pictilisib)	log2 fold change (crizotinib)	log2 fold change [1]	log2 fold change (duvelisib)	log2 fold change (gandotinib)	log2 fold change (tozasertib)	log2 fold change (doramapimod)	log2 fold change (bafetinib)	log2 fold change [2]
NUS1 (UniProt Q96E22)	inactive: 0.008	inactive: -0.015	inactive: 0.099	inactive: 0.169	inactive: 0.073	inactive: -0.105	inactive: 0.001	inactive: -0.013	inactive: -0.028	inactive: -0.023
OSTF1 (UniProt Q92882)	inactive: 0.007	inactive: -0.045	inactive: -0.005	inactive: -0.015	inactive: -0.009	inactive: 0.059	inactive: 0.085	inactive: -0.002	inactive: -0.027	inactive: 0.038
OXNAD1 (UniProt Q96HP4)	inactive: 0.004	inactive: -0.05	inactive: -0.039	inactive: 0.076	inactive: 0.022	inactive: -0.09	inactive: -0.006	inactive: 0.073	inactive: 0.059	inactive: 0.027
OBSCN isoform 6 (UniProt Q5VST9)	inactive: -0.175	–	–	–	–	–	–	–	–	–
P3H1 (UniProt Q32P28)	inactive: -0.007	inactive: -0.027	inactive: 0	inactive: 0.005	inactive: -0.017	inactive: -0.006	inactive: 0.021	inactive: -0.019	inactive: -0.006	inactive: 0.024

Reference: the supplement of paper PMC10849652
